Data on 2 sequences can be found in paper PMC7166090.

Amino acid sequences for entries named in this document (tags omitted). A change or cut given only in a name is not applied to a line headed by its entry. Residues count along the entry.
UniProt P03771: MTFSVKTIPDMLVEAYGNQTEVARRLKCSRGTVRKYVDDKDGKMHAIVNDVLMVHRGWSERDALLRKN
UniProt P02769, 25-607: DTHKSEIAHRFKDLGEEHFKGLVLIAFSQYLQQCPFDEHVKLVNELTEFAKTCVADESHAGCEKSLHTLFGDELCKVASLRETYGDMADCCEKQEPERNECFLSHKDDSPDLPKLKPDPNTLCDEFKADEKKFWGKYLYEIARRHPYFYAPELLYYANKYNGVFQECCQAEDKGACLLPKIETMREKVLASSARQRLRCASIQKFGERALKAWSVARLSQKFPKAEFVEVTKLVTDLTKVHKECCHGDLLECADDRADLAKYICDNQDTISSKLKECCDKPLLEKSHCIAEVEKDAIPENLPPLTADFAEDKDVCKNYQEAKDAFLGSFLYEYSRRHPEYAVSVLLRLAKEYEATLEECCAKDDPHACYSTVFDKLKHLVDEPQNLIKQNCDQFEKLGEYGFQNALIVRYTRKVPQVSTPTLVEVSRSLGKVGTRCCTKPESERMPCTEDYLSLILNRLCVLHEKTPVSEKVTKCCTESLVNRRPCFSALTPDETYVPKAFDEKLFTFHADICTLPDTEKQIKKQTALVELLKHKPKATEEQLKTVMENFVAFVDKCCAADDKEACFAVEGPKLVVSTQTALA

For data set [1], the target named is T1, His-NinH H55A A15T,H55A (Bacteriophage lambda (cI857 Sam7)) (UniProt P03771).
T1 sequence (looked up): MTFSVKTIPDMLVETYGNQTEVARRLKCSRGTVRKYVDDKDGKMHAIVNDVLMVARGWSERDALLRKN
The data set can be described thus: MST. Particulars: text: bound poorly; MST: PBS pH 7.4 + 0.05% Tween-20, 22 C; recombinant protein; residues 1-68; protein details: N-His6; label: 5'-Cy5 on strand 1.

The target in data set [2] is T2, His-NinH H55A R56A A15T,H55A,R56A (Bacteriophage lambda (cI857 Sam7)) (UniProt P03771).
T2 sequence (looked up): T1 sequence (looked up) with R56A
Nature of the data set: MST. The following applies: table: no binding, footnote: only weak binding, no Kd; MST: PBS pH 7.4 + 0.05% Tween-20, 22 C; recombinant protein; residues 1-68; protein details: N-His6; label: 5'-Cy5 on strand 1.

Data set [3] concerns the target T3, His-NinH R30A A15T,R30A (Bacteriophage lambda (cI857 Sam7)) (UniProt P03771).
T3 sequence (looked up): T1 sequence (looked up) with R30A, A55H
Nature of the data set: MST. Particulars: MST: PBS pH 7.4 + 0.05% Tween-20, 22 C; recombinant protein; residues 1-68; protein details: N-His6; label: 5'-Cy5 on strand 1.

For data set [4], the target named is T4, His-NinH S29A R30A A15T,S29A,R30A (Bacteriophage lambda (cI857 Sam7)) (UniProt P03771).
T4 sequence (looked up): T1 sequence (looked up) with S29A, R30A, A55H
Nature of the data set: MST. Particulars: MST: PBS pH 7.4 + 0.05% Tween-20, 22 C; recombinant protein; residues 1-68; protein details: N-His6; label: 5'-Cy5 on strand 1.

The target of the next data set is BSA (UniProt P02769). Nature of the data set: FRET. The following applies: no significant difference from no protein; commercial protein.

Where a chain is given by its changes, count along the chain named. For some assays here: A negative result means that nothing was seen under these conditions. For some assays here: A weaker result is weaker than the reference pair of the same experiment. For some assays here: Protein sequences can lack the tags named with them.

Take “ACCGATCAAGAATTGTGCAT (double strand) [Cy520 (NinH consensus)]”: the dissociation constant Kd – broadly, the constant that tells how readily two partners part at equilibrium – was above 2.5 µM in data set [1], above 9.9 µM in data set [3] and above 5.5 µM in data set [4]. Also, the binding result in data set [2] is given as “binds more weakly”.

“TGGGTCAACGTGGGCAAAGA (double strand) [DS20 FRET (o-FLU20/o-TET20)]”: the binding result with BSA is “no binding”.
